Laboratory results from PMC5544689.
No constants are given. Whether binding was seen depends on the method and setting. Binding seen in cells or lysates may run through a third protein. Here binding means that the protein was enriched with, or labelled near, the bait; the list need not be complete. For some assays here: A no says only that the protein was not detected with the bait.

Sequences of proteins named here, by UniProt entry; tags and fusion partners are left off.
UniProt Q9UKV8: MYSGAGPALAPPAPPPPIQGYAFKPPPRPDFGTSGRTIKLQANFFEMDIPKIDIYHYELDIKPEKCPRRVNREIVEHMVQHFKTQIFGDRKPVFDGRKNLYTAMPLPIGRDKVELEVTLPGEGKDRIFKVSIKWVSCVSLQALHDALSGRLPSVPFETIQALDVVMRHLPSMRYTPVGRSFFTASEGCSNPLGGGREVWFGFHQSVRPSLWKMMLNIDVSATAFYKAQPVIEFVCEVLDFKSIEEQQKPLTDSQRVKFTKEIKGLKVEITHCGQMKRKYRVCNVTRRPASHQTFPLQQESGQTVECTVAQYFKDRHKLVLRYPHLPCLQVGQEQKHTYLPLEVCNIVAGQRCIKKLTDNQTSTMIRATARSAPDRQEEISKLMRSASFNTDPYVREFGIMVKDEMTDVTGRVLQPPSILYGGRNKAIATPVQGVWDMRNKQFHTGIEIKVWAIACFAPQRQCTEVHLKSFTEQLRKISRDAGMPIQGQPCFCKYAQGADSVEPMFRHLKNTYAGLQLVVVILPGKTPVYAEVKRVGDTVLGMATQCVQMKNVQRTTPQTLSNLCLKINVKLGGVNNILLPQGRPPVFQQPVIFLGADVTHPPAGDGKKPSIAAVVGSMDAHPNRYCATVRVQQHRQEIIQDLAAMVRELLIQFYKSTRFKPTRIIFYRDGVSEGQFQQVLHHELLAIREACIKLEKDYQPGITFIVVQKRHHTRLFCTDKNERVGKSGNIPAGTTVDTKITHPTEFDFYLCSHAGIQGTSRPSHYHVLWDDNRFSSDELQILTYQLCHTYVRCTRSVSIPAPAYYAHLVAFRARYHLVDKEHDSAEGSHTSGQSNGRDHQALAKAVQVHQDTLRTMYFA
UniProt Q96GM5: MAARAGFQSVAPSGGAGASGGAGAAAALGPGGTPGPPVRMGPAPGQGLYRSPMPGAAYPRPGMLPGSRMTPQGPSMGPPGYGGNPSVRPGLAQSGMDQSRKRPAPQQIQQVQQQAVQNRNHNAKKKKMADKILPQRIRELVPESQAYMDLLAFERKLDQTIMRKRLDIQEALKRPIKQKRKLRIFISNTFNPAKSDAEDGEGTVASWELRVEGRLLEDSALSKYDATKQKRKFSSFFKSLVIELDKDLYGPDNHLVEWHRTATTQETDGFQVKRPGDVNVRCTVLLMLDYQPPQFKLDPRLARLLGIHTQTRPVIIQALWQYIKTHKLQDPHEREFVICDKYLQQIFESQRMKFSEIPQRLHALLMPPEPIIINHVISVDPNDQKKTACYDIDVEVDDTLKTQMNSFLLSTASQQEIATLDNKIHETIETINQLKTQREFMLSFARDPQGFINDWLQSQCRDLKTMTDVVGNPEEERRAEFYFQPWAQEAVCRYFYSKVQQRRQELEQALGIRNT
UniProt Q9HCJ0: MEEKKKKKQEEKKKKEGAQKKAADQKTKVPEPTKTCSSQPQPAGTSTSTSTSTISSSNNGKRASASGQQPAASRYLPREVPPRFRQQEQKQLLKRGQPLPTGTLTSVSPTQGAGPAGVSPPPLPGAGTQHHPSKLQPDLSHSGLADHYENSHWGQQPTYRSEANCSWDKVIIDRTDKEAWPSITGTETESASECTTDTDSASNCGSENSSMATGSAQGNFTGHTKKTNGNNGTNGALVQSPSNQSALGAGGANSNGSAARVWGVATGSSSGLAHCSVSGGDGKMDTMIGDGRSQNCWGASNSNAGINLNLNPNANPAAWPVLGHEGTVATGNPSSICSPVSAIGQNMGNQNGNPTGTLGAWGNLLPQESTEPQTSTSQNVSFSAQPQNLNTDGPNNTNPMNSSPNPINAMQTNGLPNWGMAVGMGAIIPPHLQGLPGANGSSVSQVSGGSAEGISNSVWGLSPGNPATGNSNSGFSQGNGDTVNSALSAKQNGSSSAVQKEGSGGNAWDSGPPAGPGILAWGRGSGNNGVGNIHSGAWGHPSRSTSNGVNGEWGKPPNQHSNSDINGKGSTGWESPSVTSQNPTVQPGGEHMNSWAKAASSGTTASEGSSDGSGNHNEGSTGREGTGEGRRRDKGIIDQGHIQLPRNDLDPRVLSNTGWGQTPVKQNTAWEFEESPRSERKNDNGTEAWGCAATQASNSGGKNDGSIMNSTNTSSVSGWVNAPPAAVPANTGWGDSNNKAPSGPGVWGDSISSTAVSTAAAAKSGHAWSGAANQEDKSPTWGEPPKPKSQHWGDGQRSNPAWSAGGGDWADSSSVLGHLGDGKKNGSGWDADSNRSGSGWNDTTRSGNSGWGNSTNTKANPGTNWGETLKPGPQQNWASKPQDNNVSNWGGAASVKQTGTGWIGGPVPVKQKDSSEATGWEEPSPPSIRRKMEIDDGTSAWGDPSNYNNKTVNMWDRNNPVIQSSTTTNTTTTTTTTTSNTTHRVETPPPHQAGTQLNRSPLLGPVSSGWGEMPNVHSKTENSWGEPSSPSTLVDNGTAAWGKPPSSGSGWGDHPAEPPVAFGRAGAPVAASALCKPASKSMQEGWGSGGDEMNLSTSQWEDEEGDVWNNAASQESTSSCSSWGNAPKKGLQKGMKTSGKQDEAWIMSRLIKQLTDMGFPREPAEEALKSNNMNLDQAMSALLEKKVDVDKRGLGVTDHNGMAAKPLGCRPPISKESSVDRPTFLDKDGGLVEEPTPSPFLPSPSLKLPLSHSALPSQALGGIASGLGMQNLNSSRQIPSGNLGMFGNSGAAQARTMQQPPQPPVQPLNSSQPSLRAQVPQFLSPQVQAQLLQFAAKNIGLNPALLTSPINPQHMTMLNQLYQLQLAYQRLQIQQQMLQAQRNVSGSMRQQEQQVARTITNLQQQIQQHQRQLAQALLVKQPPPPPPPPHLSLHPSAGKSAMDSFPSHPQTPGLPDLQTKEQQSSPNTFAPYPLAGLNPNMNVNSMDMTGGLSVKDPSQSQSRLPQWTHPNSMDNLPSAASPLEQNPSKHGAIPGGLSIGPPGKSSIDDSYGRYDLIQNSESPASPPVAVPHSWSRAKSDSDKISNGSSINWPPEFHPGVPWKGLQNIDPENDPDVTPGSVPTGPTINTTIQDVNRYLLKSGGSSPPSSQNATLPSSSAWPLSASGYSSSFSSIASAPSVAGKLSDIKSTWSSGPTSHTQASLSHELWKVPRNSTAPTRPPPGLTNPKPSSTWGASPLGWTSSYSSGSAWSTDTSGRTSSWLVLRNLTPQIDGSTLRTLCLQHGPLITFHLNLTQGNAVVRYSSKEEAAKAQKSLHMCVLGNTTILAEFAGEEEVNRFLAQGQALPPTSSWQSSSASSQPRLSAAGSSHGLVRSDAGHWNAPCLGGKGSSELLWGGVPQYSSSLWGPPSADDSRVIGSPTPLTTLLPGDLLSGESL
UniProt Q969G3: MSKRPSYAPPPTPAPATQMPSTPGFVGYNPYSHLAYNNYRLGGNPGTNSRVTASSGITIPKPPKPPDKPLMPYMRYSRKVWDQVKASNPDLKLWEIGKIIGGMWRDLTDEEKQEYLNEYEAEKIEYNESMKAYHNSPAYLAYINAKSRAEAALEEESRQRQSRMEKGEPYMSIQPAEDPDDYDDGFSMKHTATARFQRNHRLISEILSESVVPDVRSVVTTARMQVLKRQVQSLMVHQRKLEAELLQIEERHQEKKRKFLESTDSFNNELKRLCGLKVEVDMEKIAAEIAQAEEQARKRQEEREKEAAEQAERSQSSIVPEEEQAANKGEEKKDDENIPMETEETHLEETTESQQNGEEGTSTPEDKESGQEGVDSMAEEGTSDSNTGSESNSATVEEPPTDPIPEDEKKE
UniProt Q8NDV7: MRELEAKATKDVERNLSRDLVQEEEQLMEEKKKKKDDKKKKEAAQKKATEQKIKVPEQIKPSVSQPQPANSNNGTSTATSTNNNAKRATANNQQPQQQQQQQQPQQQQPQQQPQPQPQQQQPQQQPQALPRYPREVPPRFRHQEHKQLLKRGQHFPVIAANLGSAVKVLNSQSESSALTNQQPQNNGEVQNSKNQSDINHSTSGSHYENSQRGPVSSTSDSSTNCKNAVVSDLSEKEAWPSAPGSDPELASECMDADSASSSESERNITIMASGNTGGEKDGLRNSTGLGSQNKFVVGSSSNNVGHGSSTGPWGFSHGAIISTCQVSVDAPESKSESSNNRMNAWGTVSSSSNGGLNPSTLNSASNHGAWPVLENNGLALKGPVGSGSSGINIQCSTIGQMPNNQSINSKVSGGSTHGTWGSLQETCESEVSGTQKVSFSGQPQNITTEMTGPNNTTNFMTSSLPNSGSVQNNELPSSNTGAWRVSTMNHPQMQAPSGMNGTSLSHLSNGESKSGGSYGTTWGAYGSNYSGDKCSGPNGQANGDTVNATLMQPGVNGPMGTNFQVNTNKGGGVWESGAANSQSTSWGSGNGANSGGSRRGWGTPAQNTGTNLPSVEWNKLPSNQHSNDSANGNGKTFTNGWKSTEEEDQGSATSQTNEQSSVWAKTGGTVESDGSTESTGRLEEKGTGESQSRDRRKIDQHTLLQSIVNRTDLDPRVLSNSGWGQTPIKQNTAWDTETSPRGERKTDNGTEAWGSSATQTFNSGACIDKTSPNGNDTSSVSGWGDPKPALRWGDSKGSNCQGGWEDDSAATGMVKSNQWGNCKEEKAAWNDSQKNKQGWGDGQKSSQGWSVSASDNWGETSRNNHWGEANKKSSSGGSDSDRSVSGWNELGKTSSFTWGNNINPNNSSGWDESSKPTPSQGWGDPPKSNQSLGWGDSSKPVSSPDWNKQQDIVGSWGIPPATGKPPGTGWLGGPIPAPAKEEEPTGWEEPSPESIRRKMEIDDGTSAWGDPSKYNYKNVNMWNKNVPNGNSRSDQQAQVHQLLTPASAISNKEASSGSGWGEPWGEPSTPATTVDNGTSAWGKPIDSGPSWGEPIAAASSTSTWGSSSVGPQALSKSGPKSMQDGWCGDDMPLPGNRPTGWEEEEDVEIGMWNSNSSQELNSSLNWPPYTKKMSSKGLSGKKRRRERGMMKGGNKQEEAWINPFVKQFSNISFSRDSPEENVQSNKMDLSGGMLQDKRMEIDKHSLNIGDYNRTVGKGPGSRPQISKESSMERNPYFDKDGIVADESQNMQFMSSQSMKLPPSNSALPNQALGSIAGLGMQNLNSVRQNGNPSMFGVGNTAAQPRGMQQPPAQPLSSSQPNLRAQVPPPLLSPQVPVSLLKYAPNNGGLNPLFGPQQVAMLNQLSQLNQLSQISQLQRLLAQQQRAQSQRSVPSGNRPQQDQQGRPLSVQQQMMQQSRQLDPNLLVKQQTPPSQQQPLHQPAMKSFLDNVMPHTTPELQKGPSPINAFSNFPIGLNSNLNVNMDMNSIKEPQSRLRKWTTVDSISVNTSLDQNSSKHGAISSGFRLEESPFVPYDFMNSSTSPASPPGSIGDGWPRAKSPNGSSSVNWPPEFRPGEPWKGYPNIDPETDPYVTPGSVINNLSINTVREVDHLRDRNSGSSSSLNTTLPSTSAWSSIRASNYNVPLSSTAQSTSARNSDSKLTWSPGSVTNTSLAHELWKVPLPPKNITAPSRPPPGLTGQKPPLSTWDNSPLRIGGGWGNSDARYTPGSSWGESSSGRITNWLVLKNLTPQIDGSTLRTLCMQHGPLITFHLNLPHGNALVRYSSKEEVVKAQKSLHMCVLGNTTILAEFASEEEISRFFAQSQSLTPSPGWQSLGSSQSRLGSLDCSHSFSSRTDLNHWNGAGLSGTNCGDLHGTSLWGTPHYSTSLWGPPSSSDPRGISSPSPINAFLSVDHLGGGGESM

Assays:
[1] = target: Argonaute 2 (AGO2) (human (endogenous in HEK293T and primary human epidermal stem cells)) (UniProt Q9UKV8); experiment: affinity purification with mass spectrometry; ChIP-MS: formaldehyde cross-linked, sonicated chromatin of primary human epidermal stem cells; IP with anti-AGO2 11A9, protein G beads, washed 5X in RIPA buffer; SILAC (anti-FLAG control) and dimethyl labelling (IgG isotype control)
[2] = target: Argonaute 2 (AGO2) (human (endogenous in HEK293T and primary human epidermal stem cells)) (UniProt Q9UKV8); experiment: affinity purification with mass spectrometry; label-free quantitative IP-MS with anti-AGO2 11A9 against rat IgG, wild-type and AGO2-/- HEK293T lysates, RIPA buffer, triplicate; stoichiometry from iBAQ values scaled to the bait AGO2 = 1

Row | Substance | binding [1] | binding [2]
1 | SMARCD1 (from UniProt Q96GM5 1-515) | no binding | 
2 | TNRC6C (from UniProt Q9HCJ0 1-1936) |  | binds
3 | SMARCE1 (from UniProt Q969G3 1-411) | no binding | 
4 | TNRC6B (from UniProt Q9UPQ9 1-1833) |  | binds
5 | TNRC6A (from UniProt Q8NDV7 1-1962) |  | binds
